Assay results: PubChem BioAssay AID1347076 (National Center for Advancing Translational Sciences (NCATS), 2019)
Hit rate of the full screen: of about 400,000 compounds, about 13,000 (3.2%) were called active. The shares of active, inactive and inconclusive entries below differ from those in the screen. The call rests on the fitted dose curve; in most records, active means well fitted cell-killing curve with a large enough effect; inconclusive means small, poorly fitted or top-dose-only effect, or effect the other way; inactive means flat fitted curve, though single readings scatter. Potencies beside an inconclusive call are fits to weak or partial responses and may not hold up.

Assay: qHTS assay for MDR1-selective chemotherapeutics: Primary screen using the drug-selected MDR subline cells KB-V1; further: nearly all actives have a fitted effect of over 60% in size
Details: KB-V1 MDR cells viability, CellTiter-Glo, 72 h; activity change, negative = cytotoxicity: at 46.1 µM (top of the series)
How it was run: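 In this primary screen, KB-V1 cells overexpressing P-gp are incubated with library compounds (lowest to highest concentration) for 72 h at 37 degrees C before a luminescent ATP viability read.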
On the % scale 0 is the no-effect control and ±100 the full control effect; potency means the concentration at half of the fitted maximal effect.

Compound	Potency	activity change, negative = cytotoxicity
Cc1oc(-c2ccccc2F)nc1CSCC(=O)N1CCN(c2ccccc2)CC1	inconclusive: 14.6 µM [cytotoxic, partial curve]	–
CCNC(=S)N(Cc1ccccc1)Cc1nc2ccccc2c(=O)[nH]1	active: 20.6 µM	–
COc1cc(/C=N\Nc2ccc([N+](=O)[O-])cc2)ccc1OCC(=O)Nc1ccc(C)c(C)c1	–	inactive: -3.54%
COc1cccc(C(=O)C(CCC#N)c2ccccc2)c1 (configuration not stated)	inconclusive: 29.1 µM [cytotoxic, single point]	–
O=C(NCc1ccc(F)cc1)C(c1ccccc1)N(C(=O)c1csnn1)C1CCCC1 (configuration not stated)	inconclusive: 3.26 µM [cytotoxic, full curve, poor fit]	–
COc1ccc(-c2noc(=O)n2CC(=O)N2CCC(Cc3ccccc3)CC2)cc1	–	inactive: -0.349%
CCCCOc1ccc(C(=O)NCCc2sc(-c3ccc(OC)c(OC)c3)nc2C)cc1	inconclusive: 4.61 µM [cytotoxic, partial curve]	–
CCn1nc(C)c(/C=N/NC(=O)Cn2nccc2C)c1C	inconclusive: 16.4 µM [rising, single point]	–
O=C(Cn1ncc2c3ccccc3n(Cc3ccc(F)cc3)c2c1=O)N1CCN(c2ncccn2)CC1	inconclusive: 10.3 µM [cytotoxic, partial curve, poor fit]	–
COc1ccc(CNc2nc3ccccc3n2Cc2ccc(C)cc2)cc1OC	active: 3.26 µM	–
CN(c1ccccc1)C(c1ccc(F)cc1)c1nnnn1C1CCCC1 (configuration not stated)	inconclusive: 25.9 µM [cytotoxic, partial curve, poor fit]	–
Cc1ccsc1/C=N\NC(=O)Cn1nnc2ccccc21	inconclusive: 18.4 µM [cytotoxic, partial curve]	–
COc1ccc(/C=N/Nc2ncccc2[N+](=O)[O-])c(OC)c1	inconclusive: 0.0651 µM [rising, full curve]	–
CCN1C(=O)[C@H]2[C@@H](c3ccc(-c4ccc(OC)cc4)cc3)N3CCCC[C@@]3(C(=O)OC)[C@H]2C1=O	inconclusive: 29.1 µM [cytotoxic, single point]	–
COc1ccccc1-n1c(SCC(=O)Nc2ccc3c(c2)OCO3)nc2c(c1=O)SCC2	active: 7.31 µM	–
c1ccc(N(c2ccccc2)c2nc(-n3ccnc3)nc(-n3ccnc3)n2)cc1	inconclusive: 20.6 µM [cytotoxic, partial curve, poor fit]	–
CCCCOC(=O)CSC1=C(C#N)C(c2ccc3c(c2)OCO3)CC(=O)N1 (configuration not stated)	–	inactive: 0.301%
CN(Cc1ccccc1)C(=O)COC(=O)CCNC(=O)c1ccccc1Cl	–	inactive: 10.2%
COC(=O)c1sccc1NC(=O)/C=C/c1ccc(Cl)cc1	inconclusive: 16.4 µM [cytotoxic, partial curve, poor fit]	–
O=C(Nc1ccc2ccccc2c1)C(C1CC1)n1c(=O)c(-c2cc3ccccc3[nH]2)nc2ccccc21 (configuration not stated)	inconclusive: 20.6 µM [cytotoxic, single point]	–
Cc1nc2c(c(=O)n1CCC1=CCCCC1)c1nc3ccccc3nc1n2/N=C/c1ccccc1	active: 9.2 µM	–

Reformatted with each value named: part of the list above.
c1ccc(N(c2ccccc2)c2nc(-n3ccnc3)nc(-n3ccnc3)n2)cc1
  Potency: inconclusive: 20.6 µM [cytotoxic, partial curve, poor fit]
CCCCOC(=O)CSC1=C(C#N)C(c2ccc3c(c2)OCO3)CC(=O)N1 (configuration not stated)
  activity change, negative = cytotoxicity: inactive: 0.301%

Later entries:

Compound	Potency	activity change, negative = cytotoxicity
c1coc(CNc2ncnc3sc4c(c23)CCCCC4)c1	inconclusive: 20.6 µM [cytotoxic, single point]	–
O=C(NCc1ccccc1)c1cccc(COc2cccc(Cl)c2)c1	–	inactive: -28.5%
CCN(CC)C(=S)Nc1ccc2nc3n(c(=O)c2c1)CCCCC3	inconclusive: 29.1 µM [cytotoxic, single point]	–
CS(=O)(=O)N1CCC(C(=O)N2CCN(c3cccc(Cl)c3)CC2)CC1	inconclusive: 13 µM [rising, partial curve, poor fit]	–
Cc1ccccc1CNc1nc(N(C)C)nc2c1cnn2C	–	inactive: 7.3%
CCOc1ccc(S(=O)(=O)N2CCN(C(=O)C3CCC3)CC2)cc1	inconclusive: 10.3 µM [cytotoxic, partial curve]	–
COc1cc(NC(=O)CN(c2ccc(C)cc2)S(=O)(=O)c2c(C)nn(C)c2C)cc(OC)c1	inconclusive: 16.4 µM [cytotoxic, single point]	–
CCOC(=O)c1ccccc1NC(=O)COC(=O)c1cc([N+](=O)[O-])ccc1N1CCOCC1	inconclusive: 9.2 µM [cytotoxic, partial curve]	–
CCCCc1nc(SCCOC)c2c(=O)n(C)c(=O)n(C)c2n1	inconclusive: 3.66 µM [cytotoxic, full curve]	–
Brc1ccc(CSc2nnc(-c3ccccn3)n2Cc2ccco2)cc1	active: 7.31 µM	–
CCOc1ccc2c(c1)C(N(CCN1CCOCC1)C(=O)Nc1ccc(OC)cc1OC)CC(C)(C)O2 (configuration not stated)	inconclusive: 4.61 µM [cytotoxic, partial curve]	–
CCOC(=O)c1ccc(S(=O)(=O)Nc2ccc3cn[nH]c3c2)cc1	active: 18.4 µM	–
O=S(=O)(c1ccccc1)c1nc(-c2cccs2)oc1NCC1CCCO1 (configuration not stated)	inconclusive: 4.11 µM [cytotoxic, full curve, poor fit]	–
CNC(=S)NN=C(C)c1ccc(OC)cc1O	inconclusive: 1.84 µM [cytotoxic, partial curve, poor fit]	–
CCOc1ccc(CCNC(=O)Cn2c(-c3cccs3)cc3cc(F)ccc32)cc1OCC	inconclusive: 5.17 µM [cytotoxic, full curve, poor fit]	–
O=C(Nc1cccc(-c2nc3ncccc3o2)c1)c1sc2ccccc2c1Cl	inconclusive: 25.9 µM [cytotoxic, partial curve, poor fit]	–
CCOc1ccc(C)cc1S(=O)(=O)n1ccc(C)n1	inconclusive: 20.6 µM [cytotoxic, single point]	–
O=C(Nc1ccc(C2=CN(Cc3ccccc3)CCC2=O)cc1)OCc1ccccc1	–	inactive: 0%
Cc1cc(-n2c(C)cc(C(=O)COc3ccc4ccc(=O)oc4c3)c2C)no1	inconclusive: 5.8 µM [cytotoxic, partial curve]	–
O=C1COc2cc(S(=O)(=O)CCC(=O)N3CCN(c4ccccc4F)CC3)c(Cl)cc2N1	inconclusive: 18.4 µM [cytotoxic, partial curve, poor fit]	–
Cc1ccc(C(=O)NC2CCCc3ccccc32)cc1[N+](=O)[O-] (configuration not stated)	inconclusive: 20.6 µM [cytotoxic, single point]	–
